# Reference: the supplement of paper PMC12872613
# Where a name gives a salt, the structure may show the parent alone. This is one part of the list. No stated cut-off is given here; in the data, active = 0.7 or more and inactive = the rest. Single values are uncertain, as repeats are few or missing.
# Tested on: MiaPaCa-2 CLSA-25
# Assay: cell death relative to DMSO vehicle (fraction); higher = more cytotoxic
# Conditions: 5 µM; treatment time 48 h; medium cystine 25 µM
row,Structure (SMILES),cell death
1,CC(C)c1ccc2c(c1)c(SC(C)(C)C)c(CC(C)(C)C(=O)O)n2Cc1ccc(Cl)cc1,inactive: 0.279
2,CCNC(=O)c1[nH]nc(-c2cc(Cl)c(O)cc2O)c1-c1ccc(OC)cc1,inactive: 0.455
3,CC(C)C[C@H](N)C(=O)O [L-Leucine],inactive: 0.114
4,O=C(Oc1ccc([N+](=O)[O-])cc1)N1CCC(C(O)(c2ccc3c(c2)OCO3)c2ccc3c(c2)OCO3)CC1,active: 0.835
5,COc1ccc2cc(CCC(C)=O)ccc2c1 [Nabumetone],inactive: -0.031
6,CC(=O)c1ccc(NC2=C(Cl)C(=O)c3ccccc3C2=O)cc1,active: 0.762
7,C=CCc1ccc(O)c(-c2ccc(O)c(CC=C)c2)c1 [Honokiol],inactive: 0.611
8,CN1CCc2nc(C(=O)N[C@@H]3C[C@@H](C(=O)N(C)C)CC[C@@H]3NC(=O)C(=O)Nc3ccc(Cl)cn3)sc2C1 [Edoxaban],inactive: 0.148
9,CCCCC(O)c1ccccc1 (centres undefined) [Fenipentol],inactive: 0.0859
10,O=C(Nc1cccc(-c2ccccc2)c1)OC1CCCCC1,inactive: 0.222
11,NS(=O)(=O)Cc1noc2ccccc12 [Zonisamide],inactive: 0.175
12,CCc1oc2ccccc2c1C(=O)c1cc(Br)c(O)c(Br)c1 [Benzbromarone],inactive: -0.0283
13,CCNC1(C(N)=O)CCN(c2ncnc3c2nc(-c2ccccc2Cl)n3-c2ccc(Cl)cc2)CC1 [Otenabant hydrochloride],inactive: 0.314
14,COc1cc(F)c(C(C)C)cc1-c1ccc(C(F)(F)F)cc1CN1C(=O)O[C@H](c2cc(C(F)(F)F)cc(C(F)(F)F)c2)[C@@H]1C [Anacetrapib],inactive: -0.0104

# Random excerpt: two compounds from above, in no set order.
row,Structure (SMILES),cell death
2,CCNC(=O)c1[nH]nc(-c2cc(Cl)c(O)cc2O)c1-c1ccc(OC)cc1,inactive: 0.455
3,CC(C)C[C@H](N)C(=O)O [L-Leucine],inactive: 0.114
